{
  "source": "paper PMC5052522",
  "key": {"[1]": {"biological_target": "T1, C-reactive protein (CRP standard protein, recombinant) (human) (UniProt P02741)", "T1 sequence (looked up, limits assumed)": "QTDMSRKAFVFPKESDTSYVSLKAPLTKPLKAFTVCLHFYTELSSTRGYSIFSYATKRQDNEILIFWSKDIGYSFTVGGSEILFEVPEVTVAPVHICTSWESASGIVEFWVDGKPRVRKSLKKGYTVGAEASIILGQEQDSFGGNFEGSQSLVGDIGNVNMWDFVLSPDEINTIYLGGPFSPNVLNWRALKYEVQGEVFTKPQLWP", "test": "capture of aptamer-FAM PBMCs on immobilized CRP in microfluidic channel", "settings": "diluted heparinized blood, RBC excluded; commercial protein; label: 5'-biotin, 3'-FAM (5-carboxyfluorescein); single-stranded DNA"}, "[2]": {"biological_target": "T1, C-reactive protein (CRP standard protein, recombinant) (human)", "test": "capture by aptamer-conjugated PBMCs, sandwich fluorescence", "settings": "commercial protein, label: 5'-biotin, single-stranded DNA"}, "[3]": {"biological_target": "T1, C-reactive protein (CRP standard protein, recombinant) (human)", "test": "cited range", "settings": "commercial protein; label: 5'-biotin; single-stranded DNA"}},
  "note": "For at least one entry, the source does not settle the construct or the ends of the probe. For some of these results: Weaker means in comparison with the reference protein, sequence or condition of that experiment. At least one verdict was read from the data and is not stated in words by the source. Protein sequences can lack the tags named with them.",
  "data": [
    {"sequence": "GGCAGGAAGACAAACACACAAGCGGGTGGGTGTGTACTATTGCAGTATCTATTCTGTGGTCTGTGGTGCTGT [CRP ssDNA aptamer, 72-mer, 5'-biotin, 3'-FAM]", "values": [
      {"measurement": "binding result", "setting": "[1]", "result": "binds"}
    ]},
    {"sequence": "GGCAGGAAGACAAACACACAAGCGGGTGGGTGTGTACTATTGCAGTATCTATTCTGTGGTCTGTGGTGCTGT [CRP ssDNA aptamer, 72-mer, 5'-biotin]", "values": [
      {"measurement": "binding result", "setting": "[2]; CRP preincubated with 10 mM CaCl2, CRP 0-30 mg/L, LOD 0.05 mg/L", "result": "binds"},
      {"measurement": "binding result", "setting": "[2]; no added Ca2+, signal at least 20 times lower than CRP/Ca2+", "result": "binds more weakly"},
      {"measurement": "binding result", "setting": "[3]", "result": "binds"}
    ]}
  ]
}
